The experiment deals with B6C3F1 mice, B16 melanoma ip, median survival T/C. Kind of experiment: NCI In Vivo Anticancer Drug Screen. Data for tumor model B16 Melanoma (intraperitoneal) in B6C3F1 mice. Conditions: T/C endpoint: median survival time, higher T/C = longer survival. Put shortly: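 Values are T/C ratios: the measurement in treated animals divided by that in vehicle-treated controls, using survival or tumor size in mice carrying transplantable tumors.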

[1] abbreviates: dose: 400.0 mg/kg/injection, schedule: Q01DX009 (ip), vehicle: saline.
The mark [2] stands for this setting: dose: 50.0 mg/kg/injection, schedule: Q01DX009 (ip), vehicle: saline with Tween-80.
The mark [3] stands for this setting: dose: 100.0 mg/kg/injection, schedule: Q01DX009 (ip), vehicle: saline with Tween-80.
The mark [4] stands for this setting: dose: 200.0 mg/kg/injection, schedule: Q01DX009 (ip), vehicle: saline with Tween-80.
Where [5] appears, read: dose: 25.0 mg/kg/injection, schedule: Q01DX009 (ip), vehicle: Klucel (hydroxypropylcellulose) (HPC).
Setting [6] is: dose: 50.0 mg/kg/injection, schedule: Q01DX009 (ip), vehicle: Klucel (hydroxypropylcellulose) (HPC).
Where [7] appears, read: dose: 400.0 mg/kg/injection, schedule: Q01DX009 (ip), vehicle: Klucel (hydroxypropylcellulose) (HPC).
Where [8] appears, read: dose: 12.5 mg/kg/injection, schedule: Q01DX009 (ip), vehicle: saline with Tween-80.

The list does not hold the whole screen: it is rich in T/C values a quarter to a half above the control, in often repeated tests (any T/C) and in doses without a T/C. Other doses and runs of a compound stand elsewhere. T/C is the treated group as % of the vehicle group. Some doses have a count of surviving animals in place of a T/C: the source files T/C as zero there, which appears to mark a toxic dose or a test without result, not a measured value. Some survivor counts are full or nearly so, which does not show that the dose was tolerated: survival well below the control is almost never listed, so the zero probably covers shortened survival too. Survivors were counted at the toxicity check, usually on the fifth day, unless a day is given; later deaths do not show. Schedules are NCI's codes, read here as Q, the interval in days (D) or hours (H), X, the number of doses. Some entries were tested several times; the results are listed from low to high. Where survival is the endpoint, this PubChem deposit counts one and a half times the control or more as active, and values a quarter to a half above the control carry no call in these data; other NCI protocols may use other cut-offs. Some T/C values carry the count of animals alive at the toxicity check (mostly the fifth day); where none is given, no animal had died by that day. Counts like (3×) say how often a value occurs here.

From PubChem BioAssay AID200 (DTP/NCI, 2004) come the findings set out here.

Take `CN(CN1C(=O)CCC1=O)CN1C(=O)CCC1=O`: under setting [1], the survivor count is recorded as 0 of 10.

`COc1ccc2c(c1)n([O-])c1ccccc1[n+]2=O`: the T/C reads like this: (dose: 18.0 mg/kg/injection, schedule: Q01DX009 (ip), vehicle: saline with Tween-80) 125 % of control; under setting [2], 134 % of control. The survivor count reads like this: under setting [3], 7 of 10; (dose: 138.88 mg/kg/injection, schedule: Q01DX009 (ip), vehicle: saline with Tween-80) 6 of 10; (dose: 138.89 mg/kg/injection, schedule: Q01DX009 (ip), vehicle: saline with Tween-80) 9 of 10; under setting [4], 0 of 10.

For `Cc1c(-c2ccc(C3CCCCC3)cc2)nc2ccc(F)cc2c1C(=O)O`, the T/C is 125 and 127 % of control under setting [5]; 138, 142, 148 % of control under setting [6]; 145 and 149 % of control [9 of 10 alive] (dose: 100.0 mg/kg/injection, schedule: Q01DX009 (ip), vehicle: Klucel (hydroxypropylcellulose) (HPC)); 145 % of control (dose: 200.0 mg/kg/injection, schedule: Q01DX009 (ip), vehicle: Klucel (hydroxypropylcellulose) (HPC)); 131 % of control under setting [7].

Regarding `COc1cc2c3c(cccc3c1)C(=O)N(CCN(C)C)C2=O`, the T/C (dose: 80.0 mg/kg/injection, schedule: Q01DX009 (ip), vehicle: saline with Tween-80) was 126 and 132 % of control. The survivor count (dose: 160.0 mg/kg/injection, schedule: Q01DX009 (ip), vehicle: saline with Tween-80) was 2 of 10, 9 of 10, 10 of 10.

As for `O=NN(CCCl)C(=O)NC1CCCCC1`, the T/C (dose: 1.0 mg/kg/injection, schedule: Q01DX009 (ip), vehicle: Klucel (hydroxypropylcellulose) (HPC)) was 98 (2×), 103, 104, 106 [9 of 10 alive], 108, 114 % of control (2×); the T/C (dose: 2.0 mg/kg/injection, schedule: Q01DX009 (ip), vehicle: Klucel (hydroxypropylcellulose) (HPC)) was 105, 106, 107 (2×), 108, 110, 116, 117 % of control (2×); the T/C (dose: 4.0 mg/kg/injection, schedule: Q01DX009 (ip), vehicle: Klucel (hydroxypropylcellulose) (HPC)) is 107, 110, 110 [9 of 10 alive], 112, 118, 120 [9 of 10 alive], 122, 122 [7 of 10 alive], 123 % of control; the T/C (dose: 8.0 mg/kg/injection, schedule: Q01DX009 (ip), vehicle: Klucel (hydroxypropylcellulose) (HPC)) is 115, 129 [8 of 10 alive], 131, 146, 168 (2×), 190, 195, 216 % of control; the T/C (dose: 16.0 mg/kg/injection, schedule: Q01DX009 (ip), vehicle: Klucel (hydroxypropylcellulose) (HPC)) is 94, 108, 109, 130, 142, 170, 173, 209, 222 % of control; the T/C (dose: 25.0 mg/kg/injection, schedule: Q01DX001 (ip), vehicle: carboxymethylcellulose (CMC)) was 129 % of control [9 of 10 alive on day 9]. Also, where the note is “dose: 25.0 mg/kg/injection, schedule: Q01DX005 (ip), vehicle: carboxymethylcellulose (CMC)”, the T/C was 129 % of control. For the setting “dose: 32.0 mg/kg/injection, schedule: Q01DX009 (ip), vehicle: Klucel (hydroxypropylcellulose) (HPC)”, the survivor count is 10 of 10.

In the case of `COc1cccc2c1C(=O)c1c(O)c3c(c(O)c1C2=O)C[C@@](O)(/C(C)=N\O)C[C@@H]3OC1CC(N)C(O)C(C)O1` (stereo partly drawn), the T/C is 148 % of control (dose: 3.0 mg/kg/injection, schedule: Q01DX009 (ip), vehicle: saline) and 134 % of control (dose: 25.0 mg/kg/injection, schedule: Q01DX009 (ip), vehicle: water). Moreover, the survivor count (dose: 50.0 mg/kg/injection, schedule: Q01DX009 (ip), vehicle: water) is given as 8 of 10.

With `COC1C(O)C(C)OC(OC2C(Oc3cccc4c(O)c5c(=O)oc6ccc(C)c7c(=O)oc(c34)c5c67)OC(C)C(O)C2O)C1O` (stereo not drawn), the T/C (dose: 6.25 mg/kg/injection, schedule: Q01DX009 (ip), vehicle: saline with Tween-80) is 126 % of control; the T/C under setting [8] was 132 % of control; the T/C under setting [3] was 149 % of control.

With `O=C(Oc1ccc(-c2ccc(Br)cc2)cc1)c1ccco1`, under setting [8], the survivor count is given as 10 of 10.

As for `ClCC[Se](Cl)(Cl)c1ccccc1`, the T/C (dose: 3.12 mg/kg/injection, schedule: Q01DX009 (ip), vehicle: saline) is 130 % of control. The survivor count reads like this: (dose: 6.25 mg/kg/injection, schedule: Q01DX009 (ip), vehicle: saline) 9 of 9; (dose: 12.0 mg/kg/injection, schedule: Q01DX009 (ip), vehicle: saline) 2 of 10; (dose: 12.5 mg/kg/injection, schedule: Q01DX009 (ip), vehicle: saline) 6 of 9; (dose: 25.0 mg/kg/injection, schedule: Q01DX009 (ip), vehicle: saline) 1 of 9.

Consider `CCN(CC)CC(=O)O[C@]1(CC)C(=O)OCc2c1cc1n(c2=O)Cc2cc3ccccc3nc2-1`, for which the T/C was 140 % of control (dose: 2.8 mg/kg/injection, schedule: Q01DX009 (ip), vehicle: water) and 136 % of control [9 of 10 alive] (dose: 2.88 mg/kg/injection, schedule: Q01DX009 (ip), vehicle: water). In addition, the survivor count (dose: 8.0 mg/kg/injection, schedule: Q01DX009 (ip), vehicle: water) is 10 of 10; the survivor count (dose: 13.33 mg/kg/injection, schedule: Q01DX009 (ip), vehicle: water) is 6 of 10 and 10 of 10; the survivor count (dose: 16.0 mg/kg/injection, schedule: Q01DX009 (ip), vehicle: water) was 10 of 10; the survivor count (dose: 22.22 mg/kg/injection, schedule: Q01DX009 (ip), vehicle: water) was 3 of 10 and 10 of 10.

Consider `CC1=NN(c2cccc(S(=O)(=O)O)c2)C(=O)C1N=Nc1cc(Cl)cc(S(=O)(=O)O)c1O.CC1=NN(c2cccc(S(=O)(=O)O)c2)C(=O)C1N=Nc1cc(Cl)cc(S(=O)(=O)O)c1O.[Cr]` (stereo not drawn), for which the survivor count is listed as 10 of 10 (dose: 200.0 mg/kg/injection, schedule: Q01DX009 (ip), vehicle: saline); 5 of 10 under setting [1]; 0 of 10 (dose: 800.0 mg/kg/injection, schedule: Q01DX009 (ip), vehicle: saline).

For `NC(=S)c1ncn(C2OC(COC=O)C(OC=O)C2OC=O)c1NC=O` (stereo not drawn), under setting [7], the survivor count is reported as 10 of 10.

With `COc1ccc(-c2c3c(cc4cc5c(cc24)OCO5)C(=O)OC3)cc1OC`, the survivor count (dose: 96.0 mg/kg/injection, schedule: Q01DX009 (ip), vehicle: Klucel (hydroxypropylcellulose) (HPC)) is 6 of 6.

Take `CC(=O)OCC1(C)NC(=O)c2ccccc2O1` (stereo not drawn): the survivor count was 10 of 10 under setting [4] and 10 of 10 (dose: 400.0 mg/kg/injection, schedule: Q01DX009 (ip), vehicle: saline with Tween-80).

On to `COc1ccc(S(=O)(=O)N/N=C/C(=O)O)cc1`, for which the T/C reads like this: (dose: 25.0 mg/kg/injection, schedule: Q01DX009 (ip), vehicle: saline with Tween-80) 126 [9 of 10 alive] and 137 % of control; under setting [2], 138 % of control. The survivor count is reported as 10 of 10 under setting [3] and 10 of 10 under setting [4].

For the compound `NC(CC(=O)CCl)C(=O)O` (stereo not drawn), the T/C under setting [5] was 134 % of control. Besides, the survivor count under setting [6] is recorded as 9 of 10.
